Measured values from PMC11327391.
No constants are given. Whether binding was seen depends on the method and setting. In cells and extracts the contact can be indirect. Some results given as binding are weak or reduced against the parent protein; the word gives no strength. For part of these data: Sequences can lack the tags named with a protein.

Protein sequences, listed by entry. Tags and fused reporters are not part of them.
UniProt P28741: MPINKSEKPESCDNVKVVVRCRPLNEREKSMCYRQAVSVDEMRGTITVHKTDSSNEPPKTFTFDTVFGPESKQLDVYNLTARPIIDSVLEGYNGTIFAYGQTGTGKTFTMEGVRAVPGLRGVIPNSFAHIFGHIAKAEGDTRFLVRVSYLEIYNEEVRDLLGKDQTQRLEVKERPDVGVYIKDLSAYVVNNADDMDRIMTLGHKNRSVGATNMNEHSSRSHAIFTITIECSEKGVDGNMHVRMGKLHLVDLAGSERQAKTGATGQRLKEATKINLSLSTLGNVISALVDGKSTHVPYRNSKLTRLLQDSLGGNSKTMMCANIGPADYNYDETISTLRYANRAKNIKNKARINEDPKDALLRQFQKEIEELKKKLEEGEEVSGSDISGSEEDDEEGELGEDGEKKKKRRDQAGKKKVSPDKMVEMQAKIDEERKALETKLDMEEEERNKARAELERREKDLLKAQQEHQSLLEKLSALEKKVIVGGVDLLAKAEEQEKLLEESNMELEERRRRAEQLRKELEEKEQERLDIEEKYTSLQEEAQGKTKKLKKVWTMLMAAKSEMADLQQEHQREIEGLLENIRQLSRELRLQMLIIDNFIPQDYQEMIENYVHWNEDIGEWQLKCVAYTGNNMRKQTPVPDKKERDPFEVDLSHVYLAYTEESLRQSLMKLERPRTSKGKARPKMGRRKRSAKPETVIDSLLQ

How the values were obtained:
Experiment in all cases: co-IP; Flag-Ccdc178 and a Myc-tagged partner co-transfected into HEK 293T cells; cell lysates immunoprecipitated with anti-FLAG or anti-MYC antibody
[1] = biological target: T1, CFAP53 (mouse) (UniProt Q9D439)
T1 sequence: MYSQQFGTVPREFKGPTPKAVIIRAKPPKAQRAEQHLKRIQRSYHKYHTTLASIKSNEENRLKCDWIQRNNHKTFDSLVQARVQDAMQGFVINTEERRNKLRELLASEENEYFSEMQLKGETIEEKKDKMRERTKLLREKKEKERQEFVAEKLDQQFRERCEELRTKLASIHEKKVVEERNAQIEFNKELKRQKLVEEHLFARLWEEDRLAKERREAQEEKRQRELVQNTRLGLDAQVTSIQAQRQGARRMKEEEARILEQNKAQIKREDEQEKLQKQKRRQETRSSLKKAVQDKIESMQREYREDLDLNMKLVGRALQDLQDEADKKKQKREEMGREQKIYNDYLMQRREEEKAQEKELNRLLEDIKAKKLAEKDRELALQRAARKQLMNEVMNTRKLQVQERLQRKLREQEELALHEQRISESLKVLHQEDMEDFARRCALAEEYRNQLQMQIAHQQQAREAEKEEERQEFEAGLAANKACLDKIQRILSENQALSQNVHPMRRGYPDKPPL

[2] = biological target: T2, intra-flagellar transport 88 (IFT88) (mouse) (UniProt Q61371)
T2 sequence: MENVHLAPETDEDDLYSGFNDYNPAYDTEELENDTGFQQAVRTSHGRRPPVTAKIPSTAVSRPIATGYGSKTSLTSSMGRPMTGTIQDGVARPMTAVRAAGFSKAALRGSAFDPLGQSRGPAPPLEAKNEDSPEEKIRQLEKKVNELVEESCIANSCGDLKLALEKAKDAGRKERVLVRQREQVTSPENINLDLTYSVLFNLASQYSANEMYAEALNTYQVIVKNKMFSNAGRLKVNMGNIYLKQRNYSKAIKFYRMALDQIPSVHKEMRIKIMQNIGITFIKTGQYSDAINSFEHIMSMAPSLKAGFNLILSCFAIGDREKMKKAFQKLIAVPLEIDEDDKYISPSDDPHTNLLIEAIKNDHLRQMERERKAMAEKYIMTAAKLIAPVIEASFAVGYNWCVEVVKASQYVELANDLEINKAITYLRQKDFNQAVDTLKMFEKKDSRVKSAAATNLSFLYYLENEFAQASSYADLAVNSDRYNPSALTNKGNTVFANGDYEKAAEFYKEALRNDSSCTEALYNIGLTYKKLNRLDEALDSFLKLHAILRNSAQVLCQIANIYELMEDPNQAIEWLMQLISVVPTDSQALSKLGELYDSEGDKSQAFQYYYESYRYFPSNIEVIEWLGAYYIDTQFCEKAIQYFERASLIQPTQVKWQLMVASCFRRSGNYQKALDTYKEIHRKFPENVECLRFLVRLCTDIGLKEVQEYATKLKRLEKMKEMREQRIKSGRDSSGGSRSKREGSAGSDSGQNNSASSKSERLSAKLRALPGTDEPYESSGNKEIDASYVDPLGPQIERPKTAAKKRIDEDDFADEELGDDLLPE

[3] = biological target: kinesin family member 3A (KIF3A) (mouse) (UniProt P28741)

Measured: binding

B1: CCDC178 (protein, UniProt Q8CDV0 1-866)
chain: MPENEKEPAQPTTNEDALDTGKTCLQIKELKDKERALMLAENARMQGLSEFFFSRHEDKRLYESKSTNTEDVNKAIYFSYPSRRHSCTLVNIPKPCVNKMISHIEDVESKIQEHLTQFEASFEEWTSVTKDKEAGLDVSAPEKQVHPEKGKDEKCPELKKRMETLLSEAIHLIKSLETDRAEAEQALKQHKSRKKKISMKIDSWSIWKLQELPLAVQKEHENFSKINAELRSYLEDIALKVEQLQERKEKLEKANAKLQVDIDYMASHSVLLEKKRKQELGCLKERYHKKFEVMEKFRAIHEELKESVDKCEGAKARLKNMKVENEREIQEELINATSYEKELDKLSVLDAHYTTSIETVNLDIEGDEEAMNEVLRETQSTTNELENLKKTVDDLKRLFDQYCWRQRKYENEYLEAFSNFYSLKKTWDIELSNVSKDAKDLTIVYEAQSEENKRIQSEIQSITDDIEESIKKTAEMEEEVHTFVEMKMKNNNYLKQLYKQAYQVGAVYHLSRHKTEELEDKLADLKRIFKGREELLKKLTRGDIATGIEIQKRLYAIEETQFIEMQEFIRRQVLYNMALLEVEEQLKELEAEAVRIRYLHRQHSKMLHNIRKRKERVKKNVDATKKKLLKKSKKSRMELTRTEGKRSIIHEEIEIARGQTVALHEKCIELSKEIRIMNLERTNYEERLKKLQEEFFKLQFDREHVHGVYDHLMREKQYCEERIFEEERRFRRLIDMRKNTLKNIRKCQDDLLEENLRLAKEYQSAQLIFLKEKESYFNGYDRLLSLNFSLSDKKKLCQLQKRLDQKWQEYFRLMILFNKTKLAKFQGDSQNSIQKILAVQEESSSLMQHILDFFKSFPNSSCGEDD
binds: [1] | [2] | [3]
